From the supplement of paper PMC10849652
Some of the results follow.

Chains of the proteins cited; added tags and fusions are not shown. Lines headed by an entry give the natural chain unless they say otherwise; changes in a name come on top.
UniProt P98170, whole entry, looked up: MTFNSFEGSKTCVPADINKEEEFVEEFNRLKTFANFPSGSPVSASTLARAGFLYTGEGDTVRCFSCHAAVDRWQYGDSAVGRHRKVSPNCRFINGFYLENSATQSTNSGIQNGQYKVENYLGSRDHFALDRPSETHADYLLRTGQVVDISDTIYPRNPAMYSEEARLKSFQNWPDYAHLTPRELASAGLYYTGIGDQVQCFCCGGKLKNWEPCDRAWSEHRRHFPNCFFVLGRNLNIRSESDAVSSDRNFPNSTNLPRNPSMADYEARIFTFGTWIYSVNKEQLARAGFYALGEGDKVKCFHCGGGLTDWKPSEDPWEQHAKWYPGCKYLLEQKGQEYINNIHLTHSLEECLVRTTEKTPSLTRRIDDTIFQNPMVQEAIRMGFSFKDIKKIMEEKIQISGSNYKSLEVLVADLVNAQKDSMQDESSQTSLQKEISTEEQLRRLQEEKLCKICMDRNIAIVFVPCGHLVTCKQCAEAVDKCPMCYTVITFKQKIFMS
UniProt Q12768: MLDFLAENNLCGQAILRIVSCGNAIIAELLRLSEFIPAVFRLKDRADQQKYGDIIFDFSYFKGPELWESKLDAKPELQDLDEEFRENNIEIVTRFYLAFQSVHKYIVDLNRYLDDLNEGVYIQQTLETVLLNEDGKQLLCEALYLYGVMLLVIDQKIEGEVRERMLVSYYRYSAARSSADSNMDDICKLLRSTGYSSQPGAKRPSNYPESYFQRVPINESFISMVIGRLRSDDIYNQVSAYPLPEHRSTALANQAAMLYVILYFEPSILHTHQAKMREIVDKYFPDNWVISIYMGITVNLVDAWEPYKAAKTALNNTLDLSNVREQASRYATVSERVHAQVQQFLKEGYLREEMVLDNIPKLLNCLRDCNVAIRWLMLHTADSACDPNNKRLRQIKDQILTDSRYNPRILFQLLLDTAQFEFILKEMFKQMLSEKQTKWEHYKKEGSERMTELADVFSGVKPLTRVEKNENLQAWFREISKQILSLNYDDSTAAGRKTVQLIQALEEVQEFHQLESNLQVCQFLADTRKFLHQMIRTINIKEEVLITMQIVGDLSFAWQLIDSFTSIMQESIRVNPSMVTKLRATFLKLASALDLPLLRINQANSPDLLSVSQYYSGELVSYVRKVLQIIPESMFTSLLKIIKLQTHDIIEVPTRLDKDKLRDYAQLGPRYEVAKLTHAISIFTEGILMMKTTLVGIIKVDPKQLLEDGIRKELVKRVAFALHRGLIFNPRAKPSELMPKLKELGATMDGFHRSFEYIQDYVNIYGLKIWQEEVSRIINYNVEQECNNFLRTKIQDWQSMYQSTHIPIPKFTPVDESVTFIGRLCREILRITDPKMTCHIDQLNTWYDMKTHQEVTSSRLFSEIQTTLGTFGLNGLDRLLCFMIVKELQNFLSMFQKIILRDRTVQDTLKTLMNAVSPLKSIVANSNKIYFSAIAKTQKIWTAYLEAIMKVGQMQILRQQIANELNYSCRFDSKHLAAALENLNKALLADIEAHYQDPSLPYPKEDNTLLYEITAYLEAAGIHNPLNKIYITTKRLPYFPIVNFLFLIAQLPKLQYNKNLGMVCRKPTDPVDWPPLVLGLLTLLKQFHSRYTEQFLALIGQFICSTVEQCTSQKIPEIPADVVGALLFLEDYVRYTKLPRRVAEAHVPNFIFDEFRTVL
UniProt Q9P253: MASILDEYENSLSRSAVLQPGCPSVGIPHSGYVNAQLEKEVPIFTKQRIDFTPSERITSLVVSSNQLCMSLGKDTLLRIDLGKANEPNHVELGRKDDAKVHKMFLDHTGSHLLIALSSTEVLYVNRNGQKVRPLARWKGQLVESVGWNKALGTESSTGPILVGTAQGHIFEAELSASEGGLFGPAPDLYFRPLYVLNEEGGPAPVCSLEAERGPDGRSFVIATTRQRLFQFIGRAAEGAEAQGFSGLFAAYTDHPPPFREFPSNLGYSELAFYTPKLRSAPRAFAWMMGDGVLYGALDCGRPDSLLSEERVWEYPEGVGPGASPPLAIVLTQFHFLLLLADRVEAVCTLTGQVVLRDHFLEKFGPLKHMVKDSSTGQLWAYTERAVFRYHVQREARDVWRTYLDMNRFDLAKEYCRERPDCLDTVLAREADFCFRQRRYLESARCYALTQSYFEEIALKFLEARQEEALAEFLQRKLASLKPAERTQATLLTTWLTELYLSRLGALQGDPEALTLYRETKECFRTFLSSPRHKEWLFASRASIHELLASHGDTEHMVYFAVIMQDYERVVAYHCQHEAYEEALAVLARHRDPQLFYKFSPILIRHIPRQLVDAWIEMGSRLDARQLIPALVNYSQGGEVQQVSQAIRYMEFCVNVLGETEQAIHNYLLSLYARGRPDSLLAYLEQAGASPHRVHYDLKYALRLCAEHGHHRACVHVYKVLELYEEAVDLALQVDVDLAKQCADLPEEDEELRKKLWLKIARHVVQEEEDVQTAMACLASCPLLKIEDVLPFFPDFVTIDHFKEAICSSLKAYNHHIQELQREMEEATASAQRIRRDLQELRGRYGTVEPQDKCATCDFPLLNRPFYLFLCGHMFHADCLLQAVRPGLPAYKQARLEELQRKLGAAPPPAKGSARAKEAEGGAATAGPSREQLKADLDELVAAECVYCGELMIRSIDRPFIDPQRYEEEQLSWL
UniProt Q3ZAQ7: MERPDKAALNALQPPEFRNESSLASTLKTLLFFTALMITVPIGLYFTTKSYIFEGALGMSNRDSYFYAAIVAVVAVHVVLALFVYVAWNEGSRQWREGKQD
UniProt Q86Y07: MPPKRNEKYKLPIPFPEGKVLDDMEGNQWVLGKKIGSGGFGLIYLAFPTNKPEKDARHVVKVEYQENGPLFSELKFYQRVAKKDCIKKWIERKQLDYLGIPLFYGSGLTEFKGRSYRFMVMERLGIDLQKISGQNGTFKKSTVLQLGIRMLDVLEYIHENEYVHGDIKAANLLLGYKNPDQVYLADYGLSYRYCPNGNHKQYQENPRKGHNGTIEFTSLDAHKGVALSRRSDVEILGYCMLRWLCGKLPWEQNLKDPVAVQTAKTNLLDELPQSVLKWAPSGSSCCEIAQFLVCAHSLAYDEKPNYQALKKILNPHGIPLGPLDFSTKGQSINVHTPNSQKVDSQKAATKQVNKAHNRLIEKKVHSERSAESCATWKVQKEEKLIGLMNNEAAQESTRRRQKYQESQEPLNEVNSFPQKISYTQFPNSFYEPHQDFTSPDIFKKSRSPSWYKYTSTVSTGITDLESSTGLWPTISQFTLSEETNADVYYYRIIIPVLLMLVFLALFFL
UniProt A4D1P6: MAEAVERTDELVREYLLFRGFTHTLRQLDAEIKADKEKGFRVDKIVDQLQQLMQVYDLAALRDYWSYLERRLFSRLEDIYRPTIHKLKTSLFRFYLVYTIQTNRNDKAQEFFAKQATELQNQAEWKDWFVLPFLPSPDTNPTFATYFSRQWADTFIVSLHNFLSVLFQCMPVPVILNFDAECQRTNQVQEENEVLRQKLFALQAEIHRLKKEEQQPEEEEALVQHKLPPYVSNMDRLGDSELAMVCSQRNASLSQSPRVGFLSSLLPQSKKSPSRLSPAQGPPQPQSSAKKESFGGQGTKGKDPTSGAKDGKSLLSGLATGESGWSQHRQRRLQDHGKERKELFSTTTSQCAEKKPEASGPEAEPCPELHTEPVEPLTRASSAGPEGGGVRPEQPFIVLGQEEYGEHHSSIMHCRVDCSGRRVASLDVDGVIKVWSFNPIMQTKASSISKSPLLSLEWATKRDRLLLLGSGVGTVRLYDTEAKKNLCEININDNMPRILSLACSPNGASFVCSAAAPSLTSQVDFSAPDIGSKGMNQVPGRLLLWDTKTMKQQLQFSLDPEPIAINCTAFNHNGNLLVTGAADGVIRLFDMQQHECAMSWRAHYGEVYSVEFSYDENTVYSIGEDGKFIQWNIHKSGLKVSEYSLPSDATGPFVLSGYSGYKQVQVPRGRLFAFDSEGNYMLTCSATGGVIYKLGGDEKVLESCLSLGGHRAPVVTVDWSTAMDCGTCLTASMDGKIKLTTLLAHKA
UniProt Q6P4I2: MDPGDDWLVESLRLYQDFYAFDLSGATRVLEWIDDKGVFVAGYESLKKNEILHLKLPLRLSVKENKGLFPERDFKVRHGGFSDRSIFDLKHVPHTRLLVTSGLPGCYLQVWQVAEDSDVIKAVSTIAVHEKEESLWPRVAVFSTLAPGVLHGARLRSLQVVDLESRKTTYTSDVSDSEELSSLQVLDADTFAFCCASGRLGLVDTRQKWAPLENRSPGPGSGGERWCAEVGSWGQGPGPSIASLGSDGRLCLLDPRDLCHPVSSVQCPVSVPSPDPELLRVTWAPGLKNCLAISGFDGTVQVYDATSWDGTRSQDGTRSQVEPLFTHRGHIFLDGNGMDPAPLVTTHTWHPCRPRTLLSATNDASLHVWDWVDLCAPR
UniProt O95785: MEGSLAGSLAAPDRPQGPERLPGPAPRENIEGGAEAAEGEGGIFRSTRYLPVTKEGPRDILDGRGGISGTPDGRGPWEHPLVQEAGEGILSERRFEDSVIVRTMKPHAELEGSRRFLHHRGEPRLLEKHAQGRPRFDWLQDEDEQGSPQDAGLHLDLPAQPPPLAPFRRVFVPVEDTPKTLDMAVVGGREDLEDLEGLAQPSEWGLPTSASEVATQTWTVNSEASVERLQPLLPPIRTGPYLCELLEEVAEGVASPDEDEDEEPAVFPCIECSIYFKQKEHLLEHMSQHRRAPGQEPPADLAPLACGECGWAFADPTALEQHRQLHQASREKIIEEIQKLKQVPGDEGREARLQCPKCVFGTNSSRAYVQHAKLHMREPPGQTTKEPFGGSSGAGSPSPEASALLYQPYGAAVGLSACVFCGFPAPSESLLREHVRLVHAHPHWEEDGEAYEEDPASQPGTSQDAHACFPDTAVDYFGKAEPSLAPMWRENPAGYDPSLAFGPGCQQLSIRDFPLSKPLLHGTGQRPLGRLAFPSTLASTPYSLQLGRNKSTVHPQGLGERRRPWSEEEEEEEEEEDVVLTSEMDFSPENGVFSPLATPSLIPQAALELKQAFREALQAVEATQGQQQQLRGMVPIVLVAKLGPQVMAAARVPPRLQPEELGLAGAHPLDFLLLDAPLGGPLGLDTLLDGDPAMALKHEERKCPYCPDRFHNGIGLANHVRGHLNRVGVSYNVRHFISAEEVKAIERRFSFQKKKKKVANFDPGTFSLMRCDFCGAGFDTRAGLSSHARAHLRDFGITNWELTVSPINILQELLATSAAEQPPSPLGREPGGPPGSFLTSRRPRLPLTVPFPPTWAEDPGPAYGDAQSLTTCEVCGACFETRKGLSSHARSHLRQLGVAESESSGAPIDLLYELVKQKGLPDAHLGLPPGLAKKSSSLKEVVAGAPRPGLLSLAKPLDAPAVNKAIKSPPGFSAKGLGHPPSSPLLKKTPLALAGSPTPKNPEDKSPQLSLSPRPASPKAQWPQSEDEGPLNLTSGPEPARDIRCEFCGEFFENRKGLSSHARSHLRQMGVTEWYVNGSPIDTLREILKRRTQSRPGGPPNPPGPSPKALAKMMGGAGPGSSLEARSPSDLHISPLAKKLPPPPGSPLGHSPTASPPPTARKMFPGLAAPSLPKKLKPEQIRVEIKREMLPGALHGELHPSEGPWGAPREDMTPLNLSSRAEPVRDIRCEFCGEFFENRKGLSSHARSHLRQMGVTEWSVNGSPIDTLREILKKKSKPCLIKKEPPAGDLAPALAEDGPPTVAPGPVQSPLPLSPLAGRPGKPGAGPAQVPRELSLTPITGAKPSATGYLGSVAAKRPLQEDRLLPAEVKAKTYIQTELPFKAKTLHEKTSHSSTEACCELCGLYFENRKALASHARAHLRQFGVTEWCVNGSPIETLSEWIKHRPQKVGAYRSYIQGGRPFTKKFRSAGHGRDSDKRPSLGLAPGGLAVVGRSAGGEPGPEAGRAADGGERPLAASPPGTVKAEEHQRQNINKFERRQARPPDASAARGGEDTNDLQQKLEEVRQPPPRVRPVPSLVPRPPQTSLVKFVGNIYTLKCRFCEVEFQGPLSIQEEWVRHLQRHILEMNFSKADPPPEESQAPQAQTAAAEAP
UniProt Q9H9H4: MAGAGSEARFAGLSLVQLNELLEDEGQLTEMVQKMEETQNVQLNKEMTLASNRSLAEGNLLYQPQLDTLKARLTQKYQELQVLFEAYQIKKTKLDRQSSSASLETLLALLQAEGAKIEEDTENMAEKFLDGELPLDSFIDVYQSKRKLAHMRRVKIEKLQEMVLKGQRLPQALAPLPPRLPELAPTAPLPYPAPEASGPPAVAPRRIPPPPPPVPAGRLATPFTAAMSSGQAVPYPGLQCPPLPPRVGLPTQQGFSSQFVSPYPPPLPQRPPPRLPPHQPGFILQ

Legend:
Experiment in all cases: log2 fold change, soluble protein after heating vs DMSO (PISA); higher = thermal stabilisation; K562 lysate, 10 uM; active = over 0.2 and 3.5 SD of the protein, either way, in both replicates (recomputed)
nilotinib = compound: Cc1cn(-c2cc(NC(=O)c3ccc(C)c(Nc4nccc(-c5cccnc5)n4)c3)cc(C(F)(F)F)c2)cn1 [nilotinib]
Procedure, shortened: (§1)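 A 30 min treatment with 10 μM compound was applied to crude K562 extract at 1 mg/mL protein in PBS pH 7.4 with 1 mM MgCl2. Heating for 3 min spanned 48°C-58°C, after which aliquots were pooled, adjusted to 0.5% NP-40 at 4°C and spun at 21,000xg for 90 min. TMTpro 16plex LC-MS/MS of the supernatant, with channel sums equalised, gave values recorded as log-two fold change in thermal stability against solvent controls, from duplicates.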

[1] = compound: Cc1nc(Nc2n[nH]c3c2CN(C(=O)N[C@H](CN(C)C)c2ccccc2)C3(C)C)c2sccc2n1
Procedure, shortened: as §1

dasatinib = compound: Cc1nc(Nc2ncc(C(=O)Nc3c(C)cccc3Cl)s2)cc(N2CCN(CCO)CC2)n1 [dasatinib]
Procedure, shortened: as §1

[2] = compound: Cc1ncc(-c2ccnc(Nc3ccc(S(C)(=O)=O)cc3)n2)n1C(C)C
Procedure, shortened: as §1

[3] = compound: Cn1cc(-c2ccc3c(c2)CCN3C(=O)Cc2cccc(C(F)(F)F)c2)c2c(N)ncnc21
Procedure, shortened: as §1

quisinostat = compound: Cn1cc(CNCC2CCN(c3ncc(C(=O)NO)cn3)CC2)c2ccccc21 [quisinostat]
Procedure, shortened: as §1

tipifarnib = compound: Cn1cncc1[C@@](N)(c1ccc(Cl)cc1)c1ccc2c(c1)c(-c1cccc(Cl)c1)cc(=O)n2C [tipifarnib]
Procedure, shortened: as §1

[4] = compound: NC(=O)Nc1cc(-c2cccc(F)c2)sc1C(=O)N[C@H]1CCCNC1
Procedure, shortened: as §1

[5] = compound: NC(=O)c1cnc(N[C@@H]2CCCC[C@@H]2N)nc1Nc1cccc(-n2nccn2)c1
Procedure, shortened: as §1

[6] = compound: NC1(c2ccc(-c3nc4ccn5c(=O)[nH]nc5c4cc3-c3ccccc3)cc2)CCC1
Procedure, shortened: as §1

[7] = compound: NCC(=O)Nc1ccc(-n2nc(C(F)(F)F)cc2-c2ccc3c(ccc4ccccc43)c2)cc1
Procedure, shortened: as §1

vorinostat = compound: O=C(CCCCCCC(=O)Nc1ccccc1)NO [vorinostat]
Procedure, shortened: as §1

silmitasertib = compound: O=C(O)c1ccc2c(c1)nc(Nc1cccc(Cl)c1)c1ccncc12 [silmitasertib]
Procedure, shortened: as §1

[8] = compound: O=C1NC(=O)C(c2cnc3ccccn23)=C1c1cn2c3c(cc(F)cc13)CN(C(=O)N1CCCCC1)CC2
Procedure, shortened: as §1

entospletinib = compound: c1cn2cc(-c3ccc4cn[nH]c4c3)nc(Nc3ccc(N4CCOCC4)cc3)c2n1 [entospletinib]
Procedure, shortened: as §1

Target | log2 fold change (nilotinib) | log2 fold change [1] | log2 fold change (dasatinib) | log2 fold change [2] | log2 fold change [3] | log2 fold change (quisinostat) | log2 fold change (tipifarnib) | log2 fold change [4] | log2 fold change [5] | log2 fold change [6] | log2 fold change [7] | log2 fold change (vorinostat) | log2 fold change (silmitasertib) | log2 fold change [8] | log2 fold change (entospletinib)
XIAP (UniProt P98170) | inactive: 0.003 | inactive: 0.011 | inactive: 0.116 | inactive: 0.012 | inactive: -0.003 | inactive: -0.049 | inactive: -0.021 | inactive: 0 | inactive: 0.015 | inactive: -0.004 | inactive: -0.025 | inactive: 0.073 | inactive: 0.019 | inactive: 0.019 | inactive: -0.051
WASHC5 (UniProt Q12768) | inactive: 0.008 | inactive: 0.004 | inactive: -0.004 | inactive: 0 | inactive: 0.004 | inactive: 0.012 | inactive: -0.014 | inactive: 0.026 | inactive: -0.018 | inactive: -0.033 | inactive: -0.033 | inactive: 0.092 | inactive: 0.001 | inactive: -0.023 | inactive: 0
VPS18 (UniProt Q9P253) | inactive: -0.013 | inactive: -0.029 | inactive: -0.016 | inactive: 0.003 | inactive: -0.005 | inactive: -0.018 | inactive: -0.05 | inactive: 0.029 | inactive: 0.01 | inactive: -0.019 | inactive: -0.016 | active: -0.386 | inactive: 0.04 | inactive: 0.015 | inactive: -0.006
VMA21 (UniProt Q3ZAQ7) | inactive: -0.005 | inactive: -0.1 | inactive: 0.01 | inactive: 0.085 | inactive: -0.119 | inactive: -0.199 | inactive: 0.202 | inactive: 0.086 | inactive: 0.006 | inactive: -0.077 | inactive: 0.041 | inactive: 0.096 | inactive: 0 | inactive: 0.042 | inactive: -0.034
WDTC1 (UniProt Q8N5D0) | inactive: 0.054 | inactive: -0.053 | inactive: -0.054 | inactive: -0.039 | inactive: 0.004 | inactive: -0.003 | inactive: 0.007 | inactive: 0.005 | inactive: 0.013 | inactive: -0.05 | inactive: -0.005 | inactive: 0.033 | inactive: -0.111 | inactive: 0.029 | inactive: 0.019
VPS50 (UniProt Q96JG6) | inactive: -0.011 | inactive: -0.005 | inactive: -0.07 | inactive: 0.02 | inactive: 0.004 | inactive: 0.01 | inactive: -0.032 | inactive: 0.038 | inactive: 0.033 | inactive: 0.036 | inactive: -0.009 | inactive: -0.145 | inactive: 0.024 | inactive: 0.029 | inactive: 0.03
VPS26C (UniProt O14972) | inactive: -0.043 | inactive: -0.015 | inactive: -0.117 | inactive: 0.016 | inactive: 0.096 | inactive: -0.12 | inactive: 0.08 | inactive: 0.037 | inactive: 0.019 | inactive: -0.019 | inactive: 0.093 | inactive: -0.099 | inactive: 0.03 | inactive: 0.011 | inactive: -0.048
VRK2 (UniProt Q86Y07) | inactive: 0.048 | inactive: 0.219 | inactive: 0.185 | inactive: 0.017 | inactive: 0.17 | inactive: -0.044 | inactive: -0.018 | inactive: 0.026 | inactive: -0.003 | inactive: -0.006 | inactive: -0.158 | inactive: -0.166 | inactive: -0.022 | inactive: 0.039 | inactive: -0.064
WDR91 (UniProt A4D1P6) | inactive: -0.051 | inactive: -0.025 | inactive: -0.039 | inactive: -0.01 | inactive: 0.056 | inactive: 0.005 | inactive: 0.014 | inactive: -0.009 | inactive: -0.004 | inactive: 0.011 | inactive: -0.045 | active: -0.227 | inactive: 0.042 | inactive: -0.004 | inactive: -0.029
WDR41 (UniProt Q9HAD4) | inactive: -0.012 | inactive: -0.023 | inactive: 0.028 | inactive: -0.011 | inactive: 0.005 | inactive: -0.036 | inactive: -0.077 | inactive: -0.009 | inactive: -0.032 | inactive: -0.017 | inactive: -0.017 | active: -0.284 | inactive: 0.022 | inactive: -0.08 | inactive: 0.01
WDR26, A0A499FIZ0 | inactive: -0.01 | inactive: 0.013 | inactive: -0.008 | inactive: -0.007 | inactive: 0.037 | inactive: -0.028 | inactive: 0.005 | inactive: -0.005 | inactive: 0.019 | inactive: 0.011 | inactive: -0.024 | inactive: -0.124 | inactive: 0.01 | inactive: -0.032 | inactive: 0.002
WDR13 (UniProt Q9H1Z4) | inactive: -0.004 | inactive: 0.015 | inactive: -0.02 | inactive: -0.063 | inactive: 0.064 | inactive: 0.046 | inactive: -0.009 | inactive: 0.009 | inactive: -0.001 | inactive: 0.018 | inactive: -0.036 | inactive: 0.048 | inactive: 0.032 | inactive: -0.031 | inactive: -0.007
WDR73 (UniProt Q6P4I2) | inactive: 0.037 | inactive: -0.022 | inactive: 0.013 | inactive: -0.058 | inactive: 0 | inactive: -0.004 | inactive: 0.015 | inactive: 0.011 | inactive: 0.018 | inactive: -0.019 | inactive: -0.083 | inactive: -0.052 | inactive: 0.03 | inactive: -0.036 | inactive: -0.058
WDR20 isoform 7 (UniProt Q8TBZ3) | inactive: -0.001 | inactive: 0.029 | inactive: 0.055 | inactive: -0.229 | inactive: 0.038 | inactive: 0.027 | inactive: -0.174 | inactive: 0.009 | inactive: -0.026 | inactive: -0.042 | inactive: 0.01 | inactive: 0.009 | inactive: 0.087 | inactive: -0.013 | inactive: 0.018
VPS13B (UniProt Q7Z7G8) | inactive: -0.045 | inactive: 0.05 | inactive: 0.072 | inactive: -0.038 | inactive: -0.045 | inactive: -0.12 | inactive: 0.041 | inactive: -0.07 | inactive: -0.116 | inactive: -0.051 | inactive: -0.081 | inactive: -0.087 | inactive: 0.024 | inactive: 0.08 | inactive: -0.018
WIZ isoform 3 (UniProt O95785) | inactive: -0.015 | inactive: -0.078 | inactive: 0.013 | inactive: 0.002 | inactive: -0.007 | inactive: 0.002 | inactive: 0.004 | inactive: 0.022 | inactive: -0.008 | inactive: 0.022 | inactive: 0.015 | inactive: -0.056 | inactive: -0.029 | inactive: 0.007 | inactive: -0.009
VPS37B (UniProt Q9H9H4) | inactive: 0.025 | inactive: -0.078 | inactive: -0.024 | inactive: 0.046 | inactive: -0.01 | inactive: -0.05 | inactive: -0.002 | inactive: -0.024 | inactive: -0.005 | inactive: 0 | inactive: 0.029 | active: -0.349 | inactive: 0.045 | inactive: -0.035 | inactive: -0.058
WDR3 (UniProt Q9UNX4) | inactive: 0.055 | inactive: 0.001 | inactive: -0.069 | inactive: -0.016 | inactive: 0.027 | inactive: 0.044 | inactive: -0.003 | inactive: 0.021 | inactive: 0.023 | inactive: 0.009 | inactive: -0.031 | active: -0.255 | inactive: 0.044 | inactive: 0.01 | inactive: -0.001
VKORC1L1, A0A3B3ISV4 | inactive: 0.084 | inactive: 0.024 | inactive: 0.015 | inactive: 0.005 | inactive: 0.006 | inactive: 0.186 | inactive: 0.014 | inactive: -0.046 | inactive: -0.032 | inactive: 0.065 | inactive: 0.001 | inactive: -0.014 | inactive: 0 | inactive: 0.015 | inactive: 0.058
WDR43 (UniProt Q15061) | inactive: 0.025 | inactive: 0.018 | inactive: -0.017 | inactive: -0.004 | inactive: -0.022 | inactive: -0.025 | inactive: -0.015 | inactive: 0.03 | inactive: -0.017 | inactive: 0.019 | inactive: -0.002 | inactive: -0.096 | inactive: 0.013 | inactive: 0.004 | inactive: 0.023
WDR11 (UniProt Q9BZH6) | inactive: -0.098 | inactive: 0 | inactive: -0.018 | inactive: 0.003 | inactive: 0.008 | inactive: -0.188 | inactive: -0.007 | inactive: -0.005 | inactive: 0.066 | inactive: -0.015 | inactive: 0.069 | inactive: -0.098 | inactive: 0.062 | inactive: -0.054 | inactive: 0.008

For reference, some entries already given:
Target | log2 fold change (nilotinib) | log2 fold change [1] | log2 fold change (dasatinib) | log2 fold change [2] | log2 fold change [3] | log2 fold change (quisinostat) | log2 fold change (tipifarnib) | log2 fold change [4] | log2 fold change [5] | log2 fold change [6] | log2 fold change [7] | log2 fold change (vorinostat) | log2 fold change (silmitasertib) | log2 fold change [8] | log2 fold change (entospletinib)
WDR91 (UniProt A4D1P6) | inactive: -0.051 | inactive: -0.025 | inactive: -0.039 | inactive: -0.01 | inactive: 0.056 | inactive: 0.005 | inactive: 0.014 | inactive: -0.009 | inactive: -0.004 | inactive: 0.011 | inactive: -0.045 | active: -0.227 | inactive: 0.042 | inactive: -0.004 | inactive: -0.029
WDR41 (UniProt Q9HAD4) | inactive: -0.012 | inactive: -0.023 | inactive: 0.028 | inactive: -0.011 | inactive: 0.005 | inactive: -0.036 | inactive: -0.077 | inactive: -0.009 | inactive: -0.032 | inactive: -0.017 | inactive: -0.017 | active: -0.284 | inactive: 0.022 | inactive: -0.08 | inactive: 0.01
